PubChem BioAssay AID1259308 – NCATS – 2017

Purpose: 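Knock-downs that increase output of a recombinant reporter protein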 (primary screen)
System: human HEK293 embryonic kidney cells stably expressing firefly luciferase (HEK-CMV-Luc2-Hygro)
Knock-down reagent: single siRNA against human genes, 0.8 pmol siRNA per well
Time to read-out: 72 h
Measured: 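Luciferase light (ONE-Glo) measured on one replicate plate set and viability (CellTiter-Glo) on the other, scaled to a negative control siRNA, with robust z-scores and luciferase per cell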
Direction: total luciferase, z-score: higher = more reporter protein produced
Active means: 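Active when the median/MAD z-score for overall luciferase is greater than 3; a gene was taken forward for validation with new siRNAs if at least two of its three siRNAs passed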
Calls: active = raised luciferase; inactive = no rise
The deposit covers about 59,000 reagents; this is a part drawn at random. About 1,510 of them (2.6%) count as active. 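Calls use total luciferase alone and ignore viability, so some active siRNAs may act by altering cell number.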 A number with no mark means an inactive call. Reagents against one gene are numbered here. Not all columns of the deposit are shown.

After knock-down of CCT4 (chaperonin containing TCP1 subunit 4) #1, the screen gave total luciferase, z-score 2.04.
CCT4 (chaperonin containing TCP1 subunit 4) #2 scored total luciferase, z-score 2.4.
After knock-down of CCT4 (chaperonin containing TCP1 subunit 4) #3, the screen gave total luciferase, z-score 2.08.
For ATE1 (arginyltransferase 1) #1, the values are total luciferase, z-score 0.208.
After knock-down of ATE1 (arginyltransferase 1) #2, the record shows total luciferase, z-score -0.299.
After knock-down of ATE1 (arginyltransferase 1) #3, the record shows total luciferase, z-score 1.82.
Depletion of RECQL5 (RecQ like helicase 5) #1 gave: total luciferase, z-score -0.202.
Against RECQL5 (RecQ like helicase 5) #2, the entry reads total luciferase, z-score 0.46.
RECQL5 (RecQ like helicase 5) #3 showed total luciferase, z-score -1.92.
For SLC15A5 #1, the entry reads total luciferase, z-score 1.91.
Knock-down of SLC15A5 #2 resulted in: total luciferase, z-score -1.13.
After knock-down of SLC15A5 #3 the results were total luciferase, z-score 6.05 (active).
For UBXN2A (UBX domain protein 2A) #1, the entry reads total luciferase, z-score -0.807.
Silencing of UBXN2A (UBX domain protein 2A) #2 came out at: total luciferase, z-score -1.14.
Against UBXN2A (UBX domain protein 2A) #3 the deposit lists total luciferase, z-score 1.81.

Part of the list above, reformatted:
gene,reagent no.,"total luciferase, z-score"
SLC15A5,2,-1.13
SLC15A5,3,6.05 (active)
UBXN2A (UBX domain protein 2A),1,-0.807
UBXN2A (UBX domain protein 2A),2,-1.14
UBXN2A (UBX domain protein 2A),3,1.81

Next results:
CIMIP4 (ciliary microtubule inner protein 4) #1 gave total luciferase, z-score -0.946.
With knock-down of CIMIP4 (ciliary microtubule inner protein 4) #2, the record shows total luciferase, z-score 0.0458.
For CIMIP4 (ciliary microtubule inner protein 4) #3, the values are total luciferase, z-score 1.69.
Against THBS3 (thrombospondin 3) #1, the values are total luciferase, z-score 0.138.
Depletion of THBS3 (thrombospondin 3) #2 resulted in: total luciferase, z-score 0.99.
For THBS3 (thrombospondin 3) #3, the entry reads total luciferase, z-score -0.909.
RPS26P40 (ribosomal protein S26 pseudogene 40) #1 showed total luciferase, z-score -3.16.
Knock-down of RPS26P40 (ribosomal protein S26 pseudogene 40) #2 resulted in: total luciferase, z-score -3.13.
RPS26P40 (ribosomal protein S26 pseudogene 40) #3 scored total luciferase, z-score -2.71.
Against CCDC28B (coiled-coil domain containing 28B) #1 the deposit lists total luciferase, z-score 1.57.
Depletion of CCDC28B (coiled-coil domain containing 28B) #2 gave: total luciferase, z-score -0.299.
With knock-down of CCDC28B (coiled-coil domain containing 28B) #3 the results were total luciferase, z-score 0.274.
Knock-down of CBL (Cbl proto-oncogene) #1 resulted in: total luciferase, z-score 0.172.
For CBL (Cbl proto-oncogene) #2, the values are total luciferase, z-score -1.35.
After knock-down of CBL (Cbl proto-oncogene) #3, the record shows total luciferase, z-score -0.746.
MRPS17 (mitochondrial ribosomal protein S17) #1 showed total luciferase, z-score -0.181.
MRPS17 (mitochondrial ribosomal protein S17) #2 gave total luciferase, z-score 0.562.
Silencing of MRPS17 (mitochondrial ribosomal protein S17) #3 resulted in: total luciferase, z-score -1.66.
PMS2P2 #1 scored total luciferase, z-score 2.73.
With knock-down of PMS2P2 #2, the screen gave total luciferase, z-score -0.213.
PMS2P2 #3 showed total luciferase, z-score -0.125.
Against EPB42 (erythrocyte membrane protein band 4.2) #1, the values are total luciferase, z-score 0.435.
Depletion of EPB42 (erythrocyte membrane protein band 4.2) #2 resulted in: total luciferase, z-score -0.25.
Against EPB42 (erythrocyte membrane protein band 4.2) #3, the values are total luciferase, z-score -0.313.
For IL36R (interleukin 36 receptor) #1, the entry reads total luciferase, z-score 0.758.
Against IL36R (interleukin 36 receptor) #2, the values are total luciferase, z-score -0.465.
For IL36R (interleukin 36 receptor) #3, the entry reads total luciferase, z-score -0.654.
